In test [1] the target is T1, MoFe protein^StrΔZ (Strep-tagged nitrogenase MoFe protein produced in a nifZ-deletion strain) (Azotobacter vinelandii) (UniProt P07328+P07329).
T1 sequence 1: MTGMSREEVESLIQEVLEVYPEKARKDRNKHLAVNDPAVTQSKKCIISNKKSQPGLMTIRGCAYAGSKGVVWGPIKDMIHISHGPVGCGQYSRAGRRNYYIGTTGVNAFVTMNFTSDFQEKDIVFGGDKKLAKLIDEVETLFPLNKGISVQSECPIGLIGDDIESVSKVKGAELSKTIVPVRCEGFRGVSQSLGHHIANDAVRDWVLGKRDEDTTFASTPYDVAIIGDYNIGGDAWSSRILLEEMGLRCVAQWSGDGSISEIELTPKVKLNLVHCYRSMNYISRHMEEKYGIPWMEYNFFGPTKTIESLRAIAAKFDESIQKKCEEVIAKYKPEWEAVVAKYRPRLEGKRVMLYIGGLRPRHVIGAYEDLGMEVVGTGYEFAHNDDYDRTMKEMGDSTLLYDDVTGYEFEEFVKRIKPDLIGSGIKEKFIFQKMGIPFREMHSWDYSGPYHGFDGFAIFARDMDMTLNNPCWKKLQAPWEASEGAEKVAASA
T1 sequence 2: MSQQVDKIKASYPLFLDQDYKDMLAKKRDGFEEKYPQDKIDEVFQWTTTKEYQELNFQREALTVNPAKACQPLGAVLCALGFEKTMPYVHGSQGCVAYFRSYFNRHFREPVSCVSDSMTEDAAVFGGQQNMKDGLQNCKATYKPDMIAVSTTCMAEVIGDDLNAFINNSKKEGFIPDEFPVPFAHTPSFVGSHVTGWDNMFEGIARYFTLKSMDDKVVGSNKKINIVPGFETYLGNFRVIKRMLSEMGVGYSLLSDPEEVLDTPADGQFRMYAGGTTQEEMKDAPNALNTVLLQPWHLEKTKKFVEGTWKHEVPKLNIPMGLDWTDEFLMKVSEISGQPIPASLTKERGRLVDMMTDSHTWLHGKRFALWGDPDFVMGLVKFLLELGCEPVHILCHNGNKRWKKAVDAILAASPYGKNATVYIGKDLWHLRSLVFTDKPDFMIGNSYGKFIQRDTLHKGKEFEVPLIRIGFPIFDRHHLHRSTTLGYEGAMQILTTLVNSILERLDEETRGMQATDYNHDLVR
Nature of the test: shift of the elution profile in anion-exchange chromatography; 32-fold excess of isolated NifW^Str added to STAC-purified MoFe protein^StrΔZ (cells derepressed 4 h) before anion-exchange chromatography; compared with the same sample without added NifW; both purified.

Test [2] deals with T2, NifW^Str (Strep-tagged NifW) (UniProt P14888).
T2 sequence: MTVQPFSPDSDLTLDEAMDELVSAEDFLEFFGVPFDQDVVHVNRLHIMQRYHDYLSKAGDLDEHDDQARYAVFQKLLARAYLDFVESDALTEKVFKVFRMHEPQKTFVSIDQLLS
The test is described as follows: condition: only the population of MoFe protein^HisΔZ without immature P-clusters (mature P-clusters and FeMo-cofactor; fraction 1a); pull-down; Strep-Tactin column charged with NifW^Str; fraction 1 of IMAC- and anion-exchange-purified MoFe protein^HisΔZ (cells derepressed 12 h) passed over it; bound material eluted with biotin; SDS-PAGE; both purified.

Test [3] deals with T2, NifW^Str (Strep-tagged NifW). The test is described as follows: pull-down; Strep-Tactin column charged with NifW^Str; fraction 1 of IMAC- and anion-exchange-purified MoFe protein^HisΔZ (cells derepressed 12 h) passed over it; bound material eluted with biotin; SDS-PAGE; both purified.

No constants are given. Whether binding was seen depends on the method and setting. Some entries that bind do so weakly or less than the wild type. Sequences can lack the tags named with a protein.

B1: NifW (accessory protein, endogenous) (natural protein, UniProt P14888 1-115, looked up)
chain: MTVQPFSPDSDLTLDEAMDELVSAEDFLEFFGVPFDQDVVHVNRLHIMQRYHDYLSKAGDLDEHDDQARYAVFQKLLARAYLDFVESDALTEKVFKVFRMHEPQKTFVSIDQLLS
notes: NifW, Azotobacter vinelandii; also called NifW assembly factor; source: endogenous, A. vinelandii DJ1182 or DJ2111 cell extract; co-purified with MoFe protein
Take B1: in test [1], the binding result is “binds”.

B2: MoFe protein^HisΔZ (His-tagged nitrogenase MoFe protein produced in a nifZ-deletion strain) (complex, UniProt P07328 1-492; P07329 1-523)
chain 1: MTGMSREEVESLIQEVLEVYPEKARKDRNKHLAVNDPAVTQSKKCIISNKKSQPGLMTIRGCAYAGSKGVVWGPIKDMIHISHGPVGCGQYSRAGRRNYYIGTTGVNAFVTMNFTSDFQEKDIVFGGDKKLAKLIDEVETLFPLNKGISVQSECPIGLIGDDIESVSKVKGAELSKTIVPVRCEGFRGVSQSLGHHIANDAVRDWVLGKRDEDTTFASTPYDVAIIGDYNIGGDAWSSRILLEEMGLRCVAQWSGDGSISEIELTPKVKLNLVHCYRSMNYISRHMEEKYGIPWMEYNFFGPTKTIESLRAIAAKFDESIQKKCEEVIAKYKPEWEAVVAKYRPRLEGKRVMLYIGGLRPRHVIGAYEDLGMEVVGTGYEFAHNDDYDRTMKEMGDSTLLYDDVTGYEFEEFVKRIKPDLIGSGIKEKFIFQKMGIPFREMHSWDYSGPYHGFDGFAIFARDMDMTLNNPCWKKLQAPWEASEGAEKVAASA
chain 2: MSQQVDKIKASYPLFLDQDYKDMLAKKRDGFEEKYPQDKIDEVFQWTTTKEYQELNFQREALTVNPAKACQPLGAVLCALGFEKTMPYVHGSQGCVAYFRSYFNRHFREPVSCVSDSMTEDAAVFGGQQNMKDGLQNCKATYKPDMIAVSTTCMAEVIGDDLNAFINNSKKEGFIPDEFPVPFAHTPSFVGSHVTGWDNMFEGIARYFTLKSMDDKVVGSNKKINIVPGFETYLGNFRVIKRMLSEMGVGYSLLSDPEEVLDTPADGQFRMYAGGTTQEEMKDAPNALNTVLLQPWHLEKTKKFVEGTWKHEVPKLNIPMGLDWTDEFLMKVSEISGQPIPASLTKERGRLVDMMTDSHTWLHGKRFALWGDPDFVMGLVKFLLELGCEPVHILCHNGNKRWKKAVDAILAASPYGKNATVYIGKDLWHLRSLVFTDKPDFMIGNSYGKFIQRDTLHKGKEFEVPLIRIGFPIFDRHHLHRSTTLGYEGAMQILTTLVNSILERLDEETRGMQATDYNHDLVR
Consider B2, for which the binding result in test [2] was “no binding”; in test [3], “binds”.

(Values after PMC6484116, “The NifZ accessory protein has an equivalent function in maturation of both nitrogenase MoFe protein P-clusters” (The Journal of Biological Chemistry, 2019).)
